Measured values taken from the supplement of paper PMC10849652.
The list shows a part of the results.

Protein sequences, listed by entry. Tags and fused reporters are not part of them. Lines headed by an entry give the natural chain unless they say otherwise; changes in a name come on top.
UniProt P51608, whole entry, looked up: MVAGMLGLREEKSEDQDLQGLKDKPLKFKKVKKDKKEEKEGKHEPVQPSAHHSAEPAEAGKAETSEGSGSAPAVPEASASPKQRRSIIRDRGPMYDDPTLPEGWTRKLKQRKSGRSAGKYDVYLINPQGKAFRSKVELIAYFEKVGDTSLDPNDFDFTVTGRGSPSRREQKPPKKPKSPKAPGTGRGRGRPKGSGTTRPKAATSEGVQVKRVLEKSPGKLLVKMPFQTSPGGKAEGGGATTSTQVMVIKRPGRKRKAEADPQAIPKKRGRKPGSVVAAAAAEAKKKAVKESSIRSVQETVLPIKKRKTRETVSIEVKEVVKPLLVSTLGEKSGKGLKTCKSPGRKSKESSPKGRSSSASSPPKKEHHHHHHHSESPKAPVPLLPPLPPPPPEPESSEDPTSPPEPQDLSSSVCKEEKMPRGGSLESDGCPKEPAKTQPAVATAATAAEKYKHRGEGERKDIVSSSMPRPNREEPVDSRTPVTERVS
UniProt Q86U44, whole entry, looked up: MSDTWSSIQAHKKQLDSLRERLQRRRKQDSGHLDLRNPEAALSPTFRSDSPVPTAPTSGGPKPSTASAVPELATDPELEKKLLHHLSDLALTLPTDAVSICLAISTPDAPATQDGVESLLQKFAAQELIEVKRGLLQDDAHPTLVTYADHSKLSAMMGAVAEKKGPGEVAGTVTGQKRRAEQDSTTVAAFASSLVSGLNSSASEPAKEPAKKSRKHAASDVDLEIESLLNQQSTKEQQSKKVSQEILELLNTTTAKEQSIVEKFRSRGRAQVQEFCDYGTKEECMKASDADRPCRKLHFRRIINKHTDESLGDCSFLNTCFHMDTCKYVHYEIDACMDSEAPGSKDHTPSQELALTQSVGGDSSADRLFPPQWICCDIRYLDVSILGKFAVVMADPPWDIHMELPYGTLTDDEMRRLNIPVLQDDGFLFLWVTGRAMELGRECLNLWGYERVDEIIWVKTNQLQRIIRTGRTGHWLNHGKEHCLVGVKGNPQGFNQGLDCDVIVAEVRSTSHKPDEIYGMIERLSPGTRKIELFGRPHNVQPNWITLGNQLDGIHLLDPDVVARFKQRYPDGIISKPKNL
UniProt Q14728: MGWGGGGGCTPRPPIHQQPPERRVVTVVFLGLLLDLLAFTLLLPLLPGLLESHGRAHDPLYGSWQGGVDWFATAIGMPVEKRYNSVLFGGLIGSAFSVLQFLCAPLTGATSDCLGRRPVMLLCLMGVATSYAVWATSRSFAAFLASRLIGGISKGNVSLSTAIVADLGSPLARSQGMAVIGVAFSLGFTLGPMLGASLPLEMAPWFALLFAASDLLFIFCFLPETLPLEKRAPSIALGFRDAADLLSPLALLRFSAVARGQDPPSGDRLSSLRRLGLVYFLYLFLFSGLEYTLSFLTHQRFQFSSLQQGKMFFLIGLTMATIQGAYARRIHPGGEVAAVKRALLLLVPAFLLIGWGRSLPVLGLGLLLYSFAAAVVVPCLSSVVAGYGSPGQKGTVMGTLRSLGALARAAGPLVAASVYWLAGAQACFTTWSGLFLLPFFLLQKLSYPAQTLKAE
UniProt Q71F56: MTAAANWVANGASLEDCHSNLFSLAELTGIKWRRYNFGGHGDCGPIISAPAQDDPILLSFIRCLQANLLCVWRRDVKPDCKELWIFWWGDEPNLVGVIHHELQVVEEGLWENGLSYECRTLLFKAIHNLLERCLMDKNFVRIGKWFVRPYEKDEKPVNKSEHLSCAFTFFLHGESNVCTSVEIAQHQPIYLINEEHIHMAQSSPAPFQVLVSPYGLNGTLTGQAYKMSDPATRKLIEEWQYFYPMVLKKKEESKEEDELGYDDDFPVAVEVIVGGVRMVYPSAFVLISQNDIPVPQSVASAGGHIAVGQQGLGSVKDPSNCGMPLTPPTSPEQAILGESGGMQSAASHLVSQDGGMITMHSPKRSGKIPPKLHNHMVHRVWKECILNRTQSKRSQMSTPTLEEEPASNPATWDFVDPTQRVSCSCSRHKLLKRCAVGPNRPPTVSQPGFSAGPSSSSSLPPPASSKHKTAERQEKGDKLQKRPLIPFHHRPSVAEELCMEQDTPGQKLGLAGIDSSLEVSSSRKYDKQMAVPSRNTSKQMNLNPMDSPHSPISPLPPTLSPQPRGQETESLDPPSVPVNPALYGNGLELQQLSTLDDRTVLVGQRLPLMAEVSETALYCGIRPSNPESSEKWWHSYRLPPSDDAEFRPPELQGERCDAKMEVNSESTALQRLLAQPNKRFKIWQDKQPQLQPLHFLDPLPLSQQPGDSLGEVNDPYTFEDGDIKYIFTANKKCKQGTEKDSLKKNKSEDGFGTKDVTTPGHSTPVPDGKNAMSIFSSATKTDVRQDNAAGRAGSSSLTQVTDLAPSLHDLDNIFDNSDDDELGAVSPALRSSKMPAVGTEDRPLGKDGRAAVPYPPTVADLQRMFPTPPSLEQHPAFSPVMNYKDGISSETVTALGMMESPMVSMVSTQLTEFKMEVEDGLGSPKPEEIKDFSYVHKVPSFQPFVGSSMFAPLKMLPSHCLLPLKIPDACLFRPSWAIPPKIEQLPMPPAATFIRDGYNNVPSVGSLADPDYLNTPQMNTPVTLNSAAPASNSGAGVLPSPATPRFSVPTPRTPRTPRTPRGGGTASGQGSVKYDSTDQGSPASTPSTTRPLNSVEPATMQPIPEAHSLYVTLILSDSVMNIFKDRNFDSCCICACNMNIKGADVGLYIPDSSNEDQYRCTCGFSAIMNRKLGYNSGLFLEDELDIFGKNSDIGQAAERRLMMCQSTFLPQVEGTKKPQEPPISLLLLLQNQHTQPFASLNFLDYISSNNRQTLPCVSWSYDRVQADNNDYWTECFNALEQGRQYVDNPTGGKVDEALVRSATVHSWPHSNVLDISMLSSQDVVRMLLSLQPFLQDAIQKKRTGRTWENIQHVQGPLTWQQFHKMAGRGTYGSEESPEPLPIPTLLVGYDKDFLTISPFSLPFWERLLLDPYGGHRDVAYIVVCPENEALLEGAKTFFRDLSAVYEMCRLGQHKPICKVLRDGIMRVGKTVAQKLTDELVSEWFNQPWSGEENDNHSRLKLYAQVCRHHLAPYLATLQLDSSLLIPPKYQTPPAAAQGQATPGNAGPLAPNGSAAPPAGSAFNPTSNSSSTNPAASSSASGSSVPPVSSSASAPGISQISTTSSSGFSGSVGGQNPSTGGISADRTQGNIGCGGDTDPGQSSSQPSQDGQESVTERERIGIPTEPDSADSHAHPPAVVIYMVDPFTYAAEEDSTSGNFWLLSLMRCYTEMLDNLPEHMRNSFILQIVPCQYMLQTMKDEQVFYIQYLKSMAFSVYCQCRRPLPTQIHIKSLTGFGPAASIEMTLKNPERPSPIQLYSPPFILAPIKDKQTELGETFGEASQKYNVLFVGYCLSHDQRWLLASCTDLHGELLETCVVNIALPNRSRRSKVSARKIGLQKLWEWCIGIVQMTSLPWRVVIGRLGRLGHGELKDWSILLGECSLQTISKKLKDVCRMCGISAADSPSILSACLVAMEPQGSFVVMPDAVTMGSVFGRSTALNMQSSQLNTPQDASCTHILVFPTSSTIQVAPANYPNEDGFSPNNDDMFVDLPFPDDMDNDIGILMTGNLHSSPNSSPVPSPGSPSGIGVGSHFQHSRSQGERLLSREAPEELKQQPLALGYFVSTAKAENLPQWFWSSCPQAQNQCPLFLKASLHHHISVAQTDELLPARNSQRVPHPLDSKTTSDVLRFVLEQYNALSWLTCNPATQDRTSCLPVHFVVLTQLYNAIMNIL
UniProt Q9Y4C4: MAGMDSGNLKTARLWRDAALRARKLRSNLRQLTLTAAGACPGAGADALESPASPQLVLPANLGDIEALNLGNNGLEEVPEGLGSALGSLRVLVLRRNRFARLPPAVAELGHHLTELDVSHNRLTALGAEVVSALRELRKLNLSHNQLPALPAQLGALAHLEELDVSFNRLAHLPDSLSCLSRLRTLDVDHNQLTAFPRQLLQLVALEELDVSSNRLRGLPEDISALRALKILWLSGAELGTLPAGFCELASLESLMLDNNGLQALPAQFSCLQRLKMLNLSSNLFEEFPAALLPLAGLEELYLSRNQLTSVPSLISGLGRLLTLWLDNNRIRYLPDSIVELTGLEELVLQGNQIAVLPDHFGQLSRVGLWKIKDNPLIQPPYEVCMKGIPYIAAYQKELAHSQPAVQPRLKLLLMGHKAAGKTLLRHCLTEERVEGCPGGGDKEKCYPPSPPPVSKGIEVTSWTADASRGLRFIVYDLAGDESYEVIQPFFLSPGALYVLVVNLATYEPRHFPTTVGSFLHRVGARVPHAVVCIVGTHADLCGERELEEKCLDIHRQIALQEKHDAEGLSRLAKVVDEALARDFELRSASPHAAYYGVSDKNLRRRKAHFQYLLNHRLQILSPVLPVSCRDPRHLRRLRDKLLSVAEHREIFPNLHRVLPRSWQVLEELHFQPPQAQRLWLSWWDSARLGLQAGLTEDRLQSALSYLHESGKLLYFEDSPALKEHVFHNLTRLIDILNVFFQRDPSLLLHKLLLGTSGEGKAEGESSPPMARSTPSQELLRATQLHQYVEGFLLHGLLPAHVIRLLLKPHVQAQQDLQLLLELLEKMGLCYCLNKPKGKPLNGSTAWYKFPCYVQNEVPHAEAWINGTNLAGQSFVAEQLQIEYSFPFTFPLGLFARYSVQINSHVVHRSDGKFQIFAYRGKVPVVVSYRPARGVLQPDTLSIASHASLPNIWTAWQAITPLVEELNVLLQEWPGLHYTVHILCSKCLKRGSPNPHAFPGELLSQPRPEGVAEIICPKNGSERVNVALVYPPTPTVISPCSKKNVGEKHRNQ
UniProt Q7L590: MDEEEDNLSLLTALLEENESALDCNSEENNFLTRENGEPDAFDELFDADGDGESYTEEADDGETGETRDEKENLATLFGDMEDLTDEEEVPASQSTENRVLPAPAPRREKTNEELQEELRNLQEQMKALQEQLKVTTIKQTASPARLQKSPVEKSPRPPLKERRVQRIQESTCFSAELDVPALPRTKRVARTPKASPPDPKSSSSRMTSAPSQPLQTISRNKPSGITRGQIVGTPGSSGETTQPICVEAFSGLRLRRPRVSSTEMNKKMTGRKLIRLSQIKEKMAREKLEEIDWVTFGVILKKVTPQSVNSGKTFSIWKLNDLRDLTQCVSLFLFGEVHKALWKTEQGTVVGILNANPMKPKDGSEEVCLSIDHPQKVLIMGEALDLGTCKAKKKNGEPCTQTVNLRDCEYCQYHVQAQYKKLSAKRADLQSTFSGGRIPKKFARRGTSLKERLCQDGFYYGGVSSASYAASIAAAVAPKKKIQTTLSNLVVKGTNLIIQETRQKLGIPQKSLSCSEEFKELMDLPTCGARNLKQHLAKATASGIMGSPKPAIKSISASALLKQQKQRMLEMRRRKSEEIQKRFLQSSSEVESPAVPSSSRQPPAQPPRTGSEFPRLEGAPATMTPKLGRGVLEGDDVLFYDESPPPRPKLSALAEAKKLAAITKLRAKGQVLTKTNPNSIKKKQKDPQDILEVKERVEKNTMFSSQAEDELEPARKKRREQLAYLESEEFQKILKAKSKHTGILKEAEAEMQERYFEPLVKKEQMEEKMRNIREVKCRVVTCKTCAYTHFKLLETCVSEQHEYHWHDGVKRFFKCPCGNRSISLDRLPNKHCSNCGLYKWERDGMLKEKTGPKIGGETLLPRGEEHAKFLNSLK
UniProt Q96PE7: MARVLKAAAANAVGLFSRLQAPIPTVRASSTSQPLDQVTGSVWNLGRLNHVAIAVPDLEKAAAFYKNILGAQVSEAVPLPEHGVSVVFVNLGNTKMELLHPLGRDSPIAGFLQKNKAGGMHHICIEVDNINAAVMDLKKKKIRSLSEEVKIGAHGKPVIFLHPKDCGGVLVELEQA
UniProt Q9Y316: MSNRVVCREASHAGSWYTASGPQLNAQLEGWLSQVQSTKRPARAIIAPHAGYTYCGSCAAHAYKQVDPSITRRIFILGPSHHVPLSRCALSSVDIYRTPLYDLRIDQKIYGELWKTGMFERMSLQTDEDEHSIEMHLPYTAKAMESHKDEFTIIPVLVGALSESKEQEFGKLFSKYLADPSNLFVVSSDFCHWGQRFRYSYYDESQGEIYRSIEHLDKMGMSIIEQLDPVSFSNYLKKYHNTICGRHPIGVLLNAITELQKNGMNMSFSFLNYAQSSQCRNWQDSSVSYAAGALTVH
UniProt Q8TCB7: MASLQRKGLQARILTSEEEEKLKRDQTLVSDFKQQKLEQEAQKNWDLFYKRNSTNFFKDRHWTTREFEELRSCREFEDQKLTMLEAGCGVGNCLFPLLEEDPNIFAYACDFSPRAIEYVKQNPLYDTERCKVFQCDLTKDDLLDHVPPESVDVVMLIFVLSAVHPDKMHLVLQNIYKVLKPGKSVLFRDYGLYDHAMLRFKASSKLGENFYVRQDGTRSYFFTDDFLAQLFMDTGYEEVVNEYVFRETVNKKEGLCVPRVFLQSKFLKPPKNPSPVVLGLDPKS

Tests used:
Test in all cases: log2 fold change, soluble protein after heating vs DMSO (PISA); higher = thermal stabilisation; K562 lysate, 10 uM; active = over 0.2 and 3.5 SD of the protein, either way, in both replicates (recomputed)
[1] = compound: C1=CC=C(C=C1)[C@H](COC2=CC3=C(C=C2)NC(=O)N3)NC(=O)C4=CC=CN(C4=O)CC5=CC(=C(C=C5)F)F
Method in brief: (§1)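 Quantification was by TMTpro 16plex LC-MS/MS with equalised channel sums, applied to the supernatant after 21,000xg for 90 min. Samples were crude K562 extract at 1 mg/mL protein in PBS pH 7.4 with 1 mM MgCl2, treated with 10 μM compound for 30 min, heated for 3 min across 48°C-58°C, pooled and brought to 0.5% NP-40 at 4°C. Values are log-two fold changes in thermal stability relative to solvent controls, from duplicates.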

[2] = compound: CC1=C(SC2=C1C(=N[C@H](C3=NN=C(N32)C)CC(=O)N)C4=CC=C(C=C4)Cl)C
Method in brief: as §1

[3] = compound: CC1=C2C(=CC=C1)N=C(N(C2=O)C3=CC=CC=C3C)CN4C=NC5=C(N=CN=C54)N
Method in brief: as §1

[4] = compound: Cc1sc2c(c1C)C(c1ccc(Cl)cc1)=N[C@@H](CC(=O)OC(C)(C)C)c1nnc(C)n1-2
Method in brief: as §1

[5] = compound: c1ccc([C@@H]2C[C@H]2NC2CCNCC2)cc1
Method in brief: as §1

Measured: log2 fold change

MECP2 isoform 2 (UniProt P51608)
inactive: [1] 0 | [2] 0.011 | [3] -0.055 | [4] 0.015 | [5] -0.094

METTL3 (UniProt Q86U44)
inactive: [1] 0.032 | [2] -0.024 | [3] -0.032 | [4] -0.005 | [5] 0.028

MFSD10 (UniProt Q14728)
inactive: [1] 0.029 | [2] -0.014 | [3] -0.093 | [4] -0.064 | [5] -0.104

MED13L (UniProt Q71F56)
inactive: [1] -0.034 | [2] 0.029 | [3] 0.028 | [4] -0.095 | [5] 0.014

MFHAS1 (UniProt Q9Y4C4)
inactive: [1] -0.238 | [2] 0.428 | [3] -0.335 | [4] -0.002

MCM10 (UniProt Q7L590)
inactive: [1] 0.005 | [2] 0.128 | [3] 0.011 | [4] -0.163 | [5] 0.03

MCEE (UniProt Q96PE7)
inactive: [1] 0.055 | [2] -0.016 | [3] 0.037 | [4] -0.183 | [5] 0.063

Taken from the results shown (two entries):
MFSD10 (UniProt Q14728)
inactive: [1] 0.029 | [2] -0.014 | [3] -0.093 | [4] -0.064 | [5] -0.104

MED13L (UniProt Q71F56)
inactive: [1] -0.034 | [2] 0.029 | [3] 0.028 | [4] -0.095 | [5] 0.014

Continued:

MEMO1 (UniProt Q9Y316)
inactive: [1] 0.029 | [2] -0.032 | [3] -0.01 | [4] 0.038 | [5] 0.021

METTL6 (UniProt Q8TCB7)
inactive: [1] 0.221 | [2] -0.075 | [3] -0.048 | [4] 0.013 | [5] -0.043
